For part of these data: For expression read-outs the peptide stands for its source gene, whose mRNA was measured; the gene is not named for every peptide.
Columns and labels:
[1] = tested on: mRNA of source genes in urinary bladder cancer versus panel of normal tissues; assay: Expression profiling of genes encoding the peptides (RNAseq); design: species or system human; key: very highly over-expressed in tumors compared to a panel of normal tissues (+++); highly over-expressed in tumors compared to a panel of normal tissues (++); over-expressed in tumors compared to a panel of normal tissues (+)
[2] = tested on: primary urinary bladder cancer tissue samples (HLA-A*02-positive) versus panel of normal tissues; assay: Identification and relative quantitation of HLA-presented tumor associated peptides by LC-MS (presentation profiles/scores); design: species or system human; key to Peptide Presentation: very highly over-presented on tumors compared to a panel of normal tissues (+++); highly over-presented on tumors compared to a panel of normal tissues (++); over-presented on tumors compared to a panel of normal tissues (+); settings: for Peptide Presentation: presentation score: over-presentation on urinary bladder cancer tumors compared to a panel of normal tissues, label-free LC-MS; for peptide additionally detected on urinary bladder cancers (number of samples/15): 15 urinary bladder cancer samples, FIGS. 1A-1D

Substance	Gene Expression (expression score of the source gene) [1]	Peptide Presentation [2]	peptide additionally detected on urinary bladder cancers (number of samples/15) [2]
3: peptide found in TACSTD2 (gene looked up) (YLDEIPPKFSM; listed as Homo sapiens) [compound 3]	++	+++	
5: peptide found in ADGRG6 (gene looked up) (IQDPVIFYV; listed as Homo sapiens) [compound 5]	+		
6: peptide found in PPP1R13L (gene looked up) (SIVDFLITA; listed as Homo sapiens) [compound 6]	+	+++	
21: peptide found in HPGD (gene looked up) (TLIEDDALNGA; listed as Homo sapiens) [compound 21]	++	+++	
22: peptide found in SNCG (gene looked up) (SIAKEGVVGA; listed as Homo sapiens) [compound 22]	++		
76: peptide found in SNCG (gene looked up) (AVVSSVNTV; listed as Homo sapiens) [compound 76]	++		
77 (KVFGGFQVV; listed as Homo sapiens) [compound 77]		++	
80 (ILLDTPLFLL; listed as Homo sapiens) [compound 80]		+++	
81 (SLDKGTLYI; listed as Homo sapiens) [compound 81]		++	
82 (NLHNSYYSV; listed as Homo sapiens) [compound 82]		+	
83 (VILDKYYFL; listed as Homo sapiens) [compound 83]		+	
84 (ALDPASISV; listed as Homo sapiens) [compound 84]		+	
85: peptide found in ITGB4 (gene looked up) (HLLDSKVPSV; listed as Homo sapiens) [compound 85]	++		
87 (RLLELLQEA; listed as Homo sapiens) [compound 87]		++	
89 (YLFPETEFI; listed as Homo sapiens) [compound 89]		+	
91 (NLDAATYQV; listed as Homo sapiens) [compound 91]		+	
92 (ALLDEQQVNVLL; listed as Homo sapiens) [compound 92]		+	
94 (ALADGVPVAL; listed as Homo sapiens) [compound 94]		++	
96 (KLTNGIWVL; listed as Homo sapiens) [compound 96]		+	
97 (TVGPGLLGV; listed as Homo sapiens) [compound 97]		++	
98 (YLIGLDPENLAL; listed as Homo sapiens) [compound 98]		++	
99 (ALIGDDVGL; listed as Homo sapiens) [compound 99]		++	

Substance	Gene Expression (expression score of the source gene) [1]	Peptide Presentation [2]	peptide additionally detected on urinary bladder cancers (number of samples/15) [2]
100 (SLQSFIHGV; listed as Homo sapiens) [compound 100]		+	
102 (GLYEGLDWL; listed as Homo sapiens) [compound 102]		+++	
103 (GLYSGEVLV; listed as Homo sapiens) [compound 103]		+	
104 (NAVVELVTV; listed as Homo sapiens) [compound 104]		++	
106 (ILLDTPLFL; listed as Homo sapiens) [compound 106]		+	
107 (LTLAKLEKV; listed as Homo sapiens) [compound 107]		+++	
109: peptide found in IDH1 (gene looked up) (RLIDDMVAQA; listed as Homo sapiens) [compound 109]	+		
110 (VLFNIDGQGNHV; listed as Homo sapiens) [compound 110]		+++	
111 (LLDVTPKAV; listed as Homo sapiens) [compound 111]		+++	
112 (YLDPSLNSL; listed as Homo sapiens) [compound 112]		+++	
113 (FVFEPPPGV; listed as Homo sapiens) [compound 113]		+++	
114 (IITKDLFQV; listed as Homo sapiens) [compound 114]		+++	
115 (SLLDFERSL; listed as Homo sapiens) [compound 115]		+++	
116 (QLAWFDTDL; listed as Homo sapiens) [compound 116]		+	
117 (YMLDIFHEVL; listed as Homo sapiens) [compound 117]		+++	
118 (RLLDFPTLLV; listed as Homo sapiens) [compound 118]		+++	
119 (SLDEKQNLV; listed as Homo sapiens) [compound 119]		+++	
120 (IIIPEIQKV; listed as Homo sapiens) [compound 120]		++	
121 (QLQGYLRSV; listed as Homo sapiens) [compound 121]		++	
122 (ILEPSLYTV; listed as Homo sapiens) [compound 122]		+++	
123 (NLAGVYSEV; listed as Homo sapiens) [compound 123]		++	
124: peptide found in CHMP4B (gene looked up) (QIDGTLSTI; listed as Homo sapiens) [compound 124]	+	++	

Substance	Gene Expression (expression score of the source gene) [1]	Peptide Presentation [2]	peptide additionally detected on urinary bladder cancers (number of samples/15) [2]
125 (VLDEGSASV; listed as Homo sapiens) [compound 125]		++	
126 (SLLRVGWSV; listed as Homo sapiens) [compound 126]		++	
129 (YLEPKLTQV; listed as Homo sapiens) [compound 129]		++	
130 (TLTSKLYSL; listed as Homo sapiens) [compound 130]		+	
132 (YILEGEPGKV; listed as Homo sapiens) [compound 132]		++	
133 (GLDPLGYEIQL; listed as Homo sapiens) [compound 133]		+	
134 (IVAPGTFEV; listed as Homo sapiens) [compound 134]		+	
135 (FLLPLIIVL; listed as Homo sapiens) [compound 135]		+++	
136 (GLSEPIFQL; listed as Homo sapiens) [compound 136]		+++	
137 (ALFPHLLQPVL; listed as Homo sapiens) [compound 137]		++	
138 (YLTNEGIQYL; listed as Homo sapiens) [compound 138]		++	
139: peptide found in ITGA3 (gene looked up) (LLYPTEITV; listed as Homo sapiens) [compound 139]	++	+++	
140 (ALLDGRVQL; listed as Homo sapiens) [compound 140]		++	
141 (SMFGAGLTV; listed as Homo sapiens) [compound 141]		+	
142: peptide found in APOL1 (gene looked up) (FLGENISNFL; listed as Homo sapiens) [compound 142]	+++	+++	
143 (TLVTGLASV; listed as Homo sapiens) [compound 143]		+	
146 (YLARIQGFQV; listed as Homo sapiens) [compound 146]		+	
147 (QMLELITRL; listed as Homo sapiens) [compound 147]		+	
FVFEPPPGV (listed as Homo sapiens) [SEQ ID No. 113]			2/15
GLLKAYSIRTA (listed as Homo sapiens) [SEQ ID No. 2]			3/15
VLFNIDGQGNHV (listed as Homo sapiens) [SEQ ID No. 110]			3/15
YLDPSLNSL (listed as Homo sapiens) [SEQ ID No. 112]			3/15
